Laboratory results published in patent US20110009463A1, “GERANYLGERANYL TRANSFERASE INHIBITORS AND METHODS OF MAKING AND USING THE SAME” (priority 2007, published 2011).
Some of these results come from one statement about several compounds together.

Biological target: FPTase (Homo sapiens, UniProt P49354+P49356)
Test: FPTase inhibition assay ([3H]FPP transfer into H-Ras)
Assay type: biochemical
Conditions: GGPTase vs FPTase, FIG. 2

selectivity for the inhibition of GGPTase over FPTase | Compound
more than 100 fold | Cc1ccc(C(=O)N/C(=C/c2ccc(-c3ccc(Cl)c(Cl)c3)o2)C(=O)NCc2ccccc2)cc1 [Sig3]
more than 100 fold | Cc1ccc(-c2nn(-c3ccccc3)cc2/C=N/NC(=O)C(=O)Nc2cc(Cl)ccc2Cl)cc1 [Sig2]
